No constants are given. Whether binding was seen depends on the method and setting. Some results given as binding are weak or reduced against the parent protein; the word gives no strength.
Biological target: hCD131-Fc (IME021) (human) (UniProt P32927)
Assay: B cells sorted with labelled hEPOR-Fc and hCD131-Fc, then sequenced

Chains of the proteins cited; added tags and fusions are not shown. Residues count along the entry.
UniProt P32927, residues 17-443: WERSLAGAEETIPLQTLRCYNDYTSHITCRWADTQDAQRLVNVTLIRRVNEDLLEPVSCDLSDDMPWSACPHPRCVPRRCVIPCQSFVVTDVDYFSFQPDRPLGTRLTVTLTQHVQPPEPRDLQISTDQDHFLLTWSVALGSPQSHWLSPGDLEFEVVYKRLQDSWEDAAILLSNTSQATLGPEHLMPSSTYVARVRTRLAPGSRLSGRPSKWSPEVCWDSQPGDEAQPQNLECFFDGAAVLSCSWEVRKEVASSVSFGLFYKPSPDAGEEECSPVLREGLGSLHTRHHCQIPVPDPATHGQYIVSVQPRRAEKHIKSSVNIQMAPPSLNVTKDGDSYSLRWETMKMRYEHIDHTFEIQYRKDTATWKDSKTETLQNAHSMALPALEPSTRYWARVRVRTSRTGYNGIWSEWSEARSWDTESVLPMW

binding | Binder
binds | EPOR/CD131 binder, HC SEQ ID NO 1651 / LC SEQ ID NO 1787 (antibody, V domains shown) VH: QVQLVQSGAEVEKPGASVKVSCKASGYTFTSYDIYWVRQATGQGLEWMGWMIPNSGNTGYAQRFEDRVTMTRSTSMNTAYMELNSLRSEDTAVYYCARGDWAWSFDLWGRGTLVTVSS VL: QSALTQPASVSGSPGQSITISCTGTSSDVGGYNYVSWYQQHPGKAPKLMIYEVSHRPSGVSNRFSGSKSGNTASLTISGLQAEDESDYYCSSYTSSSSLVFGGGTKLTVL
binds | EPOR/CD131 binder, HC SEQ ID NO 1654 / LC SEQ ID NO 1790 (antibody, V domains shown) VH: QVQLVESGGGVVQPGRSLRLSCAASGFTFSNYGMHWVRQAPGKGLDWVAVIWYDGNNEYYADSVKDRFTISRDNSQNTLYLQMNSLRAEDRAVYYCVRGGVGDGFDMWGQGTMVTVSS VL: QSALTQPASVSGSPGQSITISCTGTSSDVGGYNYVSWYQQHPGKVPKLMIYEVSNRPSGVSNRFSGSKSGNTASLTISGLQAEDEADYYCISYTNTNTRVFGGGTKLTVL
binds | EPOR/CD131 binder, HC SEQ ID NO 1652 / LC SEQ ID NO 1788 (antibody, V domains shown) VH: QVQLVQSGAEVKKPGASVKVSCKASGYTFTSYYMHWVRQAPGQGLEWMGIINPSGGSTSYAQKFQGRVTMTRDTSTSTVYMELSSLRSEDTAVYYCARGLRRDWFDPWGQGTLVTVSS VL: QSALTQPASVSGSPGQSITISCTGTSSDVGGYNYVSWYQQHPGKAPKLMIYEVSNRPSGVSNRFSGSKSGNTASLTISGLQAEDEADYYCSSYTSSSTWVFGGGTKLTVL
binds | EPOR/CD131 binder, HC SEQ ID NO 1646 / LC SEQ ID NO 1782 (antibody, V domains shown) VH: EVQLVESGGGLVQPGGSLRLSCAASGFTFSSYWMSWVRQAPGKGLEWVANIKQDGSEKYYVDSVKGRFTISRDNAKNSLYLQMNSLRAEDTAVYYCARDGTGWFDPWGQGTLVTVSS VL: QSVLTQPPSVSGAPGQRVTISCTGSSSNIGAGYDVHWYQQLPGTAPKLLIYGNSNRPSGVPDRFSGSKSGTSASLAITGLQAEDEADYYCQSYDSSLSGWVFGGGTKLTVL
binds | EPOR/CD131 binder, HC SEQ ID NO 1643 / LC SEQ ID NO 1779 (antibody, V domains shown) VH: EVQVMESGGGLVKPGGSLRLSCAASGFSFSSHSLNWVRQAPGKGLEWVSSISGISNYIAYADSVRGRFTISRDNAKNSLFLQMNSLRAEDTGVYYCARITVVSFDYWGQGTLVTVTS VL: QSALTQPASVSGSPGQSITISCTGTNNDVGYYNYVSWYQQHPDKAPKLMIYDVIKRPSGVSDRFSGSKSGNTASLTISGLQAEDEADYYCCSYAGSSTWVFGGGTKLSVL
binds | EPOR/CD131 binder, HC SEQ ID NO 1657 / LC SEQ ID NO 1793 (antibody, V domains shown) VH: EVQLVESGGGLVKPGGSLRLSCAASGFTFSSYSMNWVRQAPGKGLEWVSSISSSSSYIYYADSVKGRFTISRDNAKNSLYLQMNSLRAEDTAVYYCARDSAYYTFDYWGQGTLVTVSS VL: QSALTQPPSASGSPGQSVTISCTGTSSDVGGYNYVSWYQQHPGKAPKLMIYEVSKRPSGVPDRFSGSKSGNTASLTVSGLQAEDEADYYCSSYAGSNNFWVFGGGTKLTVL
binds | EPOR/CD131 binder, HC SEQ ID NO 1637 / LC SEQ ID NO 1773 (antibody, V domains shown) VH: EVQLVESGGGLVQPGRSLRLSCAASGFTFDDYAMHWVRQAPGKGLEWVSGISWNSGSIGYADSVKGRFTISRDNAKNSLYLQMNSLRAEDTALYYCAKDSGYSPDYWGQGTLVTVSS VL: SYELTQPPSVSVSPGQTARITCSGDALPKKYAYWYQQKSGQAPVLVIYEDSKRPSGIPERFSGSSSGTMATLTISGAQVEDEADYYCYSTDSSGKGVFGGGTKLTVL
binds | EPOR/CD131 binder, HC SEQ ID NO 1650 / LC SEQ ID NO 1786 (antibody, V domains shown) VH: EVQLVESGGGLVQPGGSLRLSCAASGFTFSSYDMHWVRQATGKGLEWVSAIGTAGDTYYPGSVKGRFTISRENAKNSLYLQMNSLRAGDTAVYYCARGDHSYGGLDYWGQGTLVTVSS VL: SYELTQPPSVSVSLGQMARITCSGEALPKKYAYWYQQKPGQFPVLVIYKDSERPSGIPERFSGSSSGTIVTLTISGVQAEDEADYYCLSADSSGTYRVFGGGTKLTVL
binds | EPOR/CD131 binder, HC SEQ ID NO 1639 / LC SEQ ID NO 1775 (antibody, V domains shown) VH: QVQVVQSGAEVRKSGASVKVSCKASGYTFTSYYIHWVRQVPGQGLEWMGLINPSGGSTIYAQKFQGRVTMTRDTSTSSVYMELSSLRSEDTAAYYCARGGWGTMDVWGKGTTVTVSS VL: SSELTQDPAVSVALGQTVRITCQGDSLRSYYASWYQQKPGQAPVLVIYGKNNRPSGIPDRFSGSSSGNTASLTITGAQAEDEADYYCNSRDSSGNHYVFGTGTKVTVL
binds | EPOR/CD131 binder, HC SEQ ID NO 1645 / LC SEQ ID NO 1781 (antibody, V domains shown) VH: QVQLVQSGAEVKKPGASVKVSCKASGYTFTSYYIHWVRQAPGQGLEWMGIINPSGGTTNYAQKFQGRVTMTRDTSTSTVYMELSSLRSEDTAVYYCARGDWGTMDVWGKGTTVTVSS VL: QSALTQPASVSGSPGQSITISCTGTSSDVGNYNYVSWYQQHPGKVPKLMIYEVIYRPSGVSNRFSGSKSGNTASLTISGLQAEDEADYYCTSYTRNNTYVFGSGTKVTVL
binds | EPOR/CD131 binder, HC SEQ ID NO 1649 / LC SEQ ID NO 1785 (antibody, V domains shown) VH: EVQLVESGGGLVQPGGSLRLSCAASGFTFSSYSMNWVRQAPGKGLEWVSYISSSSSTIYYADSVKGRFTISRDNAKNSLYLQMNSPRDEDTAVYYCARESIAALFDYWGQGTLVTVSS VL: SSELTQDPAVSVALGQTVRITCQGDSLRSYYASWYQQKPGQAPVLVIYGKNNRPSGIPDRFSGSSSGNTASLTITGAQAEDEADYYCNSRDSSGNHLVFGGGTKLTVL
binds | EPOR/CD131 binder, HC SEQ ID NO 1662 / LC SEQ ID NO 1798 (antibody, V domains shown) VH: EVQLVESGGGLVQPGGSLRLSCAASGFTFSSYWMHWVRQAPGKGLVWVSRINSDGSSTSYADSVKGRFTISRDNAKNTLYLQMNSLRAEDTAVYYCARVGWGGHAFDIWGQGTMVTVSS VL: SSELTQDPAVSVALGQTVRITCQGDSLRSYYASWYQQKPGQAPVLVIYGKNNRPSGIPDRFSGSSSGNTASLTITGAQAEDEADYYCNSRDSSGNHVVFGGGTKLTVL
binds | EPOR/CD131 binder, HC SEQ ID NO 1640 / LC SEQ ID NO 1776 (antibody, V domains shown) VH: EVQLVESGGGLVQPGGSLRLSCAASGFTFSSYDMHWVRQATGKGLEWVSAIGTAGDTYYPGSVKGRFTISRENAKNSLYLQMNSLRAGDTAVYYCARAWELDAFDIWGQGTMVTVSS VL: SSELTQDPAVSVALGQTVRITCQGDSLRSYYASWYQQKPGQAPVLVIYGKNNRPSGIPDRFSGSSSGNTASLTITGAQAEDEADYYCNSRDSSGNHVVFGGGTKLTVL
binds | EPOR/CD131 binder, HC SEQ ID NO 1647 / LC SEQ ID NO 1783 (antibody, V domains shown) VH: QVQLVQSGAEVKKPGASVKVSCKASGYTFTSYGISWVRQAPGQGLEWMGWISAYNGNTNYAQKLQGRVTMTTDTSTSTAYMELRSLRSDDTAVYYCARRGTVVFDYWGQGTLVTVSS VL: QSALTQPASVSGSPGQSITISCTGTSSDVGGYNYVSWYQQHPGKAPKLMIYDVSKRPSGVSNRFSGSKSGNTASLTISGLQAEDEADYYCCSYAGSSTYVVFGGGTKLTVL
binds | EPOR/CD131 binder, HC SEQ ID NO 1648 / LC SEQ ID NO 1784 (antibody, V domains shown) VH: QVQLVQSGAEVKKPGASVKVSCKASGYTFTNYGISWVRQAPGQGLEWMGWISAYNGNTNYAQNLQGRVTMTTDTSTSTAYMELRSLRSDDTAVYYCARPLSGTLDNWGQGTLVTVSS VL: QSALTQPASVSGSPGQSITISCTGTSSDVGGYNYVSWYQQHPGKAPKLMIYDVSKRPSGVSNRFSGSKSGNTASLTISGLQAEDEADYYCCSYAGRSTLGIDWVFGGGTKLTVR
binds | EPOR/CD131 binder, HC SEQ ID NO 1660 / LC SEQ ID NO 1796 (antibody, V domains shown) VH: EVQLVESGGGVVRPGGSLRLSCAASGFPFDDFGLNWVRQAPGKGLEWVSGINWNGGTTTYADSVKGRFTISRDNAKKSLYLQMSSLRVEDTALFYCVRDEIWNYYFDYWGQGTLVTVSS VL: SYELTQPSSVSVSPGQTARITCSGDVLAKKYARWFQQKPGQAPVLVIYKDSERPSGIPERFSGSSSGTTVTLTISGAQVEDEADYYCYSAADNNRVFGGGTKLTVL
